According to article PMC4935974:
These are yes or no findings as the source states them, for the method shown. In cells and extracts the contact can be indirect. Some binding calls cover weakened binding; strength is not graded here.

Chains of the proteins cited; added tags and fusions are not shown.
UniProt Q92804: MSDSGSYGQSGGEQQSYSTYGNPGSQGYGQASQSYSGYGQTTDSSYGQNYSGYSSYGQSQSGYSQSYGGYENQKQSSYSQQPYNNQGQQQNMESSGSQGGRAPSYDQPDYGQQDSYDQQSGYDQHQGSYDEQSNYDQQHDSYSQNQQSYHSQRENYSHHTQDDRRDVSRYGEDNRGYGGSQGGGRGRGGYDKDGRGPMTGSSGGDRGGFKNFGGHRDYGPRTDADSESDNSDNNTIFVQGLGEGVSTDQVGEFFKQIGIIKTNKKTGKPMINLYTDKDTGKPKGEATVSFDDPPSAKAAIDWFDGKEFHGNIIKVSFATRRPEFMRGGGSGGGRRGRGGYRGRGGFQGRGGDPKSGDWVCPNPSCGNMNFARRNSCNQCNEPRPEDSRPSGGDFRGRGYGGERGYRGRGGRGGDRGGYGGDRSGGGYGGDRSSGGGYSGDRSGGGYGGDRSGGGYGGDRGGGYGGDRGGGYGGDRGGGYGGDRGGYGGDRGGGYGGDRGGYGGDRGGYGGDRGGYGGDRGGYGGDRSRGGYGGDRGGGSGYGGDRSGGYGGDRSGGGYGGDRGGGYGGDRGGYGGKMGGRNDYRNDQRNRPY
UniProt P35637: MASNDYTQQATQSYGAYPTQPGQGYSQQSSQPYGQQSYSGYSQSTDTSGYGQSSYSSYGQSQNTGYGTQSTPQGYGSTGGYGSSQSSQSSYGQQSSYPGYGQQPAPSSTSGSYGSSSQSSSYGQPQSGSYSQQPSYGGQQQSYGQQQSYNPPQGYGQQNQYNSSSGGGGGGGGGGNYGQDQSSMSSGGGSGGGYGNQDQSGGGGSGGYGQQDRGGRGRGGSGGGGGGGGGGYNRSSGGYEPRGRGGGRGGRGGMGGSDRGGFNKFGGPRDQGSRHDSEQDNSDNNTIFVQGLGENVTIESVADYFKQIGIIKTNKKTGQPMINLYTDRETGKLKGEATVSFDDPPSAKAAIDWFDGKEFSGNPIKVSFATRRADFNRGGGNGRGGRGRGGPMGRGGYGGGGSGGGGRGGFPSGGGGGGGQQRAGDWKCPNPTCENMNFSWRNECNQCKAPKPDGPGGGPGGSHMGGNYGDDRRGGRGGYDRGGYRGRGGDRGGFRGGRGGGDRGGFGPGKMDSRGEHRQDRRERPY

Biological target: V5-tagged TAF15 (human) (UniProt Q92804)
Test: co-IP; TAF15-V5 and FUS-Myc expressed separately in HEK293T cells; lysates mixed after lysis; immunoprecipitation by V5 or by Myc, blot for the other tag

**Q.** Which binding does the source give for “Myc-tagged FUS (from UniProt P35637 1-526)” here?
**A.** The binding was “binds”.
